These are yes or no findings as the source states them, for the method shown. In cells and extracts the contact can be indirect. These calls come from enrichment with a bait or labelling near it, and not all partners need be listed. For some of these results: No binding means not detected with the bait. Sequences can lack the tags named with a protein.
T1: ^FLAGBTBD9^NEV/AKD, for mass spectrometry (not stated (human or mouse cDNA cloned)) (UniProt Q96Q07)
T1 sequence: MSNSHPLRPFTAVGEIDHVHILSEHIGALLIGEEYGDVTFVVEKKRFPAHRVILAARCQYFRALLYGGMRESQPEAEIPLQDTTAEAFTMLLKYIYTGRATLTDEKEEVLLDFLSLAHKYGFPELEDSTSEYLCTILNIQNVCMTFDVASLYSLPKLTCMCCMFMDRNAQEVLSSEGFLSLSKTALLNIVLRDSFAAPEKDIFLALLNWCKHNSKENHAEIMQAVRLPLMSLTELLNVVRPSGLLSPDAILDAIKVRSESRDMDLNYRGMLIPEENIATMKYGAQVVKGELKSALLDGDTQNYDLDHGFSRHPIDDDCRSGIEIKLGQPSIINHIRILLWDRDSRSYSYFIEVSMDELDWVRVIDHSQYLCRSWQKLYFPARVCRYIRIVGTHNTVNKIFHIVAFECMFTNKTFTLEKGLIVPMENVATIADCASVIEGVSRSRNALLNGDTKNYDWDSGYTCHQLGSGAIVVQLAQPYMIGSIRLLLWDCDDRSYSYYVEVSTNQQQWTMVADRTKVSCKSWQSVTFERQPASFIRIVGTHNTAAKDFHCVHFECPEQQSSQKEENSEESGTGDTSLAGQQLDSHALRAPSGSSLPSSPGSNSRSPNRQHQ

Protein sequences, listed by entry. Tags and fused reporters are not part of them.
UniProt Q03135: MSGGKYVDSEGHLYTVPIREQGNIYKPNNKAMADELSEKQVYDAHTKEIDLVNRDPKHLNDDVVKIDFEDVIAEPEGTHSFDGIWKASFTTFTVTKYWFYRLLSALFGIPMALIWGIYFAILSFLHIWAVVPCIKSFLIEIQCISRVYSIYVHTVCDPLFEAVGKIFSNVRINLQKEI

T2: ^FLAGBTBD9 (wildtype), for mass spectrometry (not stated (human or mouse cDNA cloned)) (UniProt Q96Q07)
T2 sequence: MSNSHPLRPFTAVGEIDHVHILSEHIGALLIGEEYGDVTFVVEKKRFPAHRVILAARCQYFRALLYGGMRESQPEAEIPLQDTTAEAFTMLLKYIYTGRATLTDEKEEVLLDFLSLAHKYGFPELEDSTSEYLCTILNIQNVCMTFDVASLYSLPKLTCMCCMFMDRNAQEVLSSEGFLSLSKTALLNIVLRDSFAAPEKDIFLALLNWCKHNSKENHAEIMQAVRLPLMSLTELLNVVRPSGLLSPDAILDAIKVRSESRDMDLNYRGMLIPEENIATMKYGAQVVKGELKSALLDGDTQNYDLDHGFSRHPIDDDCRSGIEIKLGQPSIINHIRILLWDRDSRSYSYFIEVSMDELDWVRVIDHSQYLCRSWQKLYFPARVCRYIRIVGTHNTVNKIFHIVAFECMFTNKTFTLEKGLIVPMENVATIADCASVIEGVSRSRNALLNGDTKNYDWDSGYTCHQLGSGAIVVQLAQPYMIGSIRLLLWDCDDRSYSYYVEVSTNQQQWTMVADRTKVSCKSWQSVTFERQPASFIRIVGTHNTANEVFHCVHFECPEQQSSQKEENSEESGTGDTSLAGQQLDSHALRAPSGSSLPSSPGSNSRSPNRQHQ

T3: ^FLAGBTBD9^M69A/R70A/E71A, for mass spectrometry (not stated (human or mouse cDNA cloned)) (UniProt Q96Q07)
T3 sequence: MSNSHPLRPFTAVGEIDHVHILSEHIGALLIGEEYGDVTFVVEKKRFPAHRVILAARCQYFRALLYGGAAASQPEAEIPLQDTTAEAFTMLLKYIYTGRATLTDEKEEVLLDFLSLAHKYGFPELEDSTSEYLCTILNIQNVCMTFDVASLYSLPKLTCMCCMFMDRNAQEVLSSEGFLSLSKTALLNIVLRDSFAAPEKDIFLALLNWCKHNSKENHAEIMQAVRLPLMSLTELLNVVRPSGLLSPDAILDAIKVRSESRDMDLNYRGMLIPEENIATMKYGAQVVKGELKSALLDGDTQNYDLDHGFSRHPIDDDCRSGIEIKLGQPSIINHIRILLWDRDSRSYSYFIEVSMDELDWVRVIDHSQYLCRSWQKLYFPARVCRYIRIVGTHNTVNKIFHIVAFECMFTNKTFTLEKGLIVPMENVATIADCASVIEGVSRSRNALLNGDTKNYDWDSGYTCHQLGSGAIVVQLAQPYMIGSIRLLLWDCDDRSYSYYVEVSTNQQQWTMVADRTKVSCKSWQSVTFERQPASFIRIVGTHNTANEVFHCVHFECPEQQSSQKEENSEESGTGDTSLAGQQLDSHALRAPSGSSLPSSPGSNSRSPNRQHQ


Assays:
Test in all cases: affinity purification with mass spectrometry
[1] = biological target: T1, ^FLAGBTBD9^NEV/AKD, for mass spectrometry (not stated (human or mouse cDNA cloned))
[2] = biological target: T2, ^FLAGBTBD9 (wildtype), for mass spectrometry (not stated (human or mouse cDNA cloned))
[3] = biological target: T3, ^FLAGBTBD9^M69A/R70A/E71A, for mass spectrometry (not stated (human or mouse cDNA cloned))

Row | binding [1] | binding [2] | binding [3] | Molecule
1 | no binding | binds | binds | endogenous CAV1 (found in BTBD9 affinity-purifications by mass spectrometry) (from UniProt Q03135 1-178)
2 | – | binds | binds | KCTD10 (found in BTBD9 affinity-purifications by mass spectrometry) (protein, UniProt Q9H3F6 1-313) MEEMSGESVVSSAVPAAATRTTSFKGTSPSSKYVKLNVGGALYYTTMQTLTKQDTMLKAMFSGRMEVLTDSEGWILIDRCGKHFGTILNYLRDGAVPLPESRREIEELLAEAKYYLVQGLVEECQAALQNKDTYEPFCKVPVITSSKEEQKLIATSNKPAVKLLYNRSNNKYSYTSNSDDNMLKNIELFDKLSLRFNGRVLFIKDVIGDEICCWSFYGQGRKIAEVCCTSIVYATEKKQTKVEFPEARIYEETLNILLYEAQDGRGPDNALLEATGGAAGRSHHLDEDEERERIERVRRIHIKRPDDRAHLHQ
3 | – | binds | binds | TNFAIP1 (found in BTBD9 affinity-purifications by mass spectrometry) (protein, UniProt Q13829 1-316) MSGDTCLCPASGAKPKLSGFKGGGLGNKYVQLNVGGSLYYTTVRALTRHDTMLKAMFSGRMEVLTDKEGWILIDRCGKHFGTILNYLRDDTITLPQNRQEIKELMAEAKYYLIQGLVNMCQSALQDKKDSYQPVCNIPIITSLKEEERLIESSTKPVVKLLYNRSNNKYSYTSNSDDHLLKNIELFDKLSLRFNGRVLFIKDVIGDEICCWSFYGQGRKLAEVCCTSIVYATEKKQTKVEFPEARIYEETLNVLLYETPRVPDNSLLEATSRSRSQASPSEDEETFELRDRVRRIHVKRYSTYDDRQLGHQSTHRD
4 | – | binds | – | CAVIN3 (protein, UniProt Q969G5 1-261) MRESALERGPVPEAPAGGPVHAVTVVTLLEKLASMLETLRERQGGLARRQGGLAGSVRRIQSGLGALSRSHDTTSNTLAQLLAKAERVSSHANAAQERAVRRAAQVQRLEANHGLLVARGKLHVLLFKEEGEVPASAFQKAPEPLGPADQSELGPEQLEAEVGESSDEEPVESRAQRLRRTGLQKVQSLRRALSGRKGPAAPPPTPVKPPRLGPGRSAEAQPEAQPALEPTLEPEPPQDTEEDPGRPGAAEEALLQMESVA
5 | – | binds | binds | KCTD13 (protein, UniProt Q8WZ19 1-329) MSAEASGPAAAAAPSLEAPKPSGLEPGPAAYGLKPLTPNSKYVKLNVGGSLHYTTLRTLTGQDTMLKAMFSGRVEVLTDAGGWVLIDRSGRHFGTILNYLRDGSVPLPESTRELGELLGEARYYLVQGLIEDCQLALQQKRETLSPLCLIPMVTSPREEQQLLASTSKPVVKLLHNRSNNKYSYTSTSDDNLLKNIELFDKLALRFHGRLLFLKDVLGDEICCWSFYGQGRKIAEVCCTSIVYATEKKQTKVEFPEARIFEETLNILIYETPRGPDPALLEATGGAAGAGGAGRGEDEENREHRVRRIHVRRHITHDERPHGQQIVFKD
